Measured values as given in publication PMC8439062.
Results are given in words; binding and its absence hold for the method and conditions named. Binding seen in cells or lysates may run through a third protein. Some entries that bind do so weakly or less than the wild type. Where a sequence is shown, tags or fusion partners need not be part of it.

What was measured:
[1] = target: T1, HA-MG53(C), C-terminal part of human MG53 (aa 246-477) with the PRY-SPRY domains (human) (UniProt Q6ZMU5); assay: co-IP; HEK293 cells transfected with HA-MG53 (full length or deletion mutants) and Myc-DDK-tagged G3BP2 for 24 hr, MG132 (10 uM) for 16 hr; RIPA buffer lysate; IP with anti-HA magnetic beads, blot with anti-HA and anti-G3BP2
T1 sequence: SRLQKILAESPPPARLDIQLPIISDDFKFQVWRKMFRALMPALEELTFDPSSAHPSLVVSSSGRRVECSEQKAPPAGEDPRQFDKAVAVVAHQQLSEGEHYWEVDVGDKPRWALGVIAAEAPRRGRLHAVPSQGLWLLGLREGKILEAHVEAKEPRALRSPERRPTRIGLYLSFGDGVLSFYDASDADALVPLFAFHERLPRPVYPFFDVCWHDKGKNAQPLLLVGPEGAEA

[2] = target: T2, HA-MG53(N), N-terminal part of human MG53 (aa 1-269) with the TRIM domain (human) (UniProt Q6ZMU5); assay: as above
T2 sequence: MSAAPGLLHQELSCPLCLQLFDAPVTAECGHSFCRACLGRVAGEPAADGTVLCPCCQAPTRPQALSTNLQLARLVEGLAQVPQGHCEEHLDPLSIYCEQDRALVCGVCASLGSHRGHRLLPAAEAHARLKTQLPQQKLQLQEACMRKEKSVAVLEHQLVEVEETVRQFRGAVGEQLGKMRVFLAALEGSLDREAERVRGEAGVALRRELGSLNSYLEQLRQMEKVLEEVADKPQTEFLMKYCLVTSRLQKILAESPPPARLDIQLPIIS

binding [1]: no binding | binding [2]: binds
B1: Myc-DDK-tagged G3BP2 (Ras GTPase-activating protein-binding protein 2) (protein, UniProt Q9UN86 1-482)
chain: MVMEKPSPLLVGREFVRQYYTLLNKAPEYLHRFYGRNSSYVHGGVDASGKPQEAVYGQNDIHHKVLSLNFSECHTKIRHVDAHATLSDGVVVQVMGLLSNSGQPERKFMQTFVLAPEGSVPNKFYVHNDMFRYEDEVFGDSEPELDEESEDEVEEEQEERQPSPEPVQENANSGYYEAHPVTNGIEEPLEESSHEPEPEPESETKTEELKPQVEEKNLEELEEKSTTPPPAEPVSLPQEPPKAFSWASVTSKNLPPSGTVSSSGIPPHVKAPVSQPRVEAKPEVQSQPPRVREQRPRERPGFPPRGPRPGRGDMEQNDSDNRRIIRYPDSHQLFVGNLPHDIDENELKEFFMSFGNVVELRINTKGVGGKLPNFGFVVFDDSEPVQRILIAKPIMFRGEVRLNVEEKKTRAARERETRGGGDDRRDIRRNDRGPGGPRGIVGGGMMRDRDGRGPPPRGGMAQKLGSGRGTGQMEGRFTGQRR
